Results taken from PMC12485490.
Results are given in words; binding and its absence hold for the method and conditions named. Binding seen in cells or lysates may run through a third protein. Some entries that bind do so weakly or less than the wild type. Where a sequence is shown, tags or fusion partners need not be part of it.

Chains of the proteins cited; added tags and fusions are not shown.
UniProt P0AAI3: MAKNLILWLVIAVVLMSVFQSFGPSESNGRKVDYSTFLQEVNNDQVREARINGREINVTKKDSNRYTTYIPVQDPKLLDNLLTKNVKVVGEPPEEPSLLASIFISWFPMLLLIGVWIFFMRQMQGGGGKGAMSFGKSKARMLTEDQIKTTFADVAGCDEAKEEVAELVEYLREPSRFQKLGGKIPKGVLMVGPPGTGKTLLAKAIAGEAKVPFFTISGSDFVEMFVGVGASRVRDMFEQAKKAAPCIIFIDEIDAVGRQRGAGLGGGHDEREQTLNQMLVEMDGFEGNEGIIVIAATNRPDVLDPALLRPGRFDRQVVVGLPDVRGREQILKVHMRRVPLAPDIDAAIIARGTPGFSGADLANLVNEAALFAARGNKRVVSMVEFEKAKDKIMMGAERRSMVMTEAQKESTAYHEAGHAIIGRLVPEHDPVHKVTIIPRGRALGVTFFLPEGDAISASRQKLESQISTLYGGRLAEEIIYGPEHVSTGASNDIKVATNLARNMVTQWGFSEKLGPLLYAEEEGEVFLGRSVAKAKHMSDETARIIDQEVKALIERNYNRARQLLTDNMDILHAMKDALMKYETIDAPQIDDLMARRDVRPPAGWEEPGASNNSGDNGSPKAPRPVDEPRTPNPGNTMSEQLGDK

Target: T1, YidC with a C-terminal 10xHis tag (Escherichia coli) (UniProt P25714)
T1 sequence: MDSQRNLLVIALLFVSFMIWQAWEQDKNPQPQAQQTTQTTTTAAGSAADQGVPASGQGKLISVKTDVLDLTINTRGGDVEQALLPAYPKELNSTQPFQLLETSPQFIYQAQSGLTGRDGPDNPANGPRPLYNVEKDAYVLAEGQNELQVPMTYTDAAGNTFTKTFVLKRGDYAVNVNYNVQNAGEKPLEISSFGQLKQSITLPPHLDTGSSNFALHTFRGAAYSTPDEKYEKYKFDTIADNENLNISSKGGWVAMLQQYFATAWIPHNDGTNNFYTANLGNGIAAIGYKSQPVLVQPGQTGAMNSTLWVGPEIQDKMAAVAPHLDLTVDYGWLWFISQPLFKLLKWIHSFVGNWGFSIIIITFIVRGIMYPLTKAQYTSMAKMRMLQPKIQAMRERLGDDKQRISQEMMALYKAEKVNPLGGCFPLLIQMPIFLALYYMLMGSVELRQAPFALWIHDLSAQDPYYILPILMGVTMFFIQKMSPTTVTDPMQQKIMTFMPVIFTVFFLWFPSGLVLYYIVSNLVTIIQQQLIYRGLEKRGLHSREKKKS
Assay: pull-down; Ni-NTA affinity purification by the 10xHis tag of YidC from DDM-solubilised, DSP-cross-linked membranes of E. coli C43 (DE3), washes with 1 M NaCl and 50 mM imidazole, then SEC (Superose 6 Increase); 20 mM HEPES pH 7.5; partners found by Western blot and SDS-PAGE or by cryo-EM 2D class averages of the SEC fractions

binding: binds
Substance: FtsH with a C-terminal 3xStrepTag II (from UniProt P0AAI3 1-644) (enzyme)
